{"source": "PubChem BioAssay AID1508597 (Cure First, 2020)", "assay": "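Knock-downs altering ovarian cancer cell survival with or without PARP inhibitor rucaparib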 (primary screen)", "cell system": "human ovarian carcinoma lines grown from tumours: OCI-P5x (papillary serous) and OCI-C5x (clear cell)", "knock-down reagent": "siRNA pool against human genes, 1.25 pmol siRNA per well", "timing": "72 h or 96 h, depending on the cell culture", "challenge": "rucaparib 20 µM (about IC30) or vehicle, present until read-out", "rucaparib or vehicle": "Rucaparib", "cell line": "OCI-C5x (clear cell)", "detection": "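Luminescent ATP-based viability assay read 72 or 96 h after transfection, depending on culture, given as normalised percent viability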", "scale": "viability, normalised: higher = more viable cells remaining", "hit rule": "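a well counts as a hit if its normalised viability is under 80 percent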", "calls": "active = viability under 80%; inactive = viability 80% or more", "note": "Shown is an unselected part of the about 2,100 reagents, under one of the conditions tested. 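Calls flag viability under 80% in either arm, not effects specific to rucaparib; the reference for percent is not stated.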 Some reagents were tested in more than one well and are listed for each. Not given: the 100% reference."}
{"gene": "PELP1", "technical replicate": "1", "viability, normalised (%)": 32.3, "call": "active"}
{"gene": "PELP1", "technical replicate": "2", "viability, normalised (%)": 54, "call": "active"}
{"gene": "PELP1", "technical replicate": "3", "viability, normalised (%)": 50, "call": "active"}
{"gene": "TET1", "technical replicate": "1", "viability, normalised (%)": 56.7, "call": "active"}
{"gene": "TET1", "technical replicate": "2", "viability, normalised (%)": 48.8, "call": "active"}
{"gene": "TET1", "technical replicate": "3", "viability, normalised (%)": 48.8, "call": "active"}
{"gene": "RIOK2", "technical replicate": "1", "viability, normalised (%)": 50.6, "call": "active"}
{"gene": "RIOK2", "technical replicate": "2", "viability, normalised (%)": 43, "call": "active"}
{"gene": "RIOK2", "technical replicate": "3", "viability, normalised (%)": 36.1, "call": "active"}
{"gene": "EPHA6", "technical replicate": "1", "viability, normalised (%)": 56.4, "call": "active"}
{"gene": "EPHA6", "technical replicate": "2", "viability, normalised (%)": 51.6, "call": "active"}
{"gene": "EPHA6", "technical replicate": "3", "viability, normalised (%)": 48.1, "call": "active"}
{"gene": "PCGF2", "technical replicate": "1", "viability, normalised (%)": 51.8, "call": "active"}
{"gene": "PCGF2", "technical replicate": "2", "viability, normalised (%)": 40.1, "call": "active"}
{"gene": "PCGF2", "technical replicate": "3", "viability, normalised (%)": 36.4, "call": "active"}
{"gene": "MASTL", "technical replicate": "1", "viability, normalised (%)": 60.5, "call": "active"}
{"gene": "MASTL", "technical replicate": "2", "viability, normalised (%)": 77.6, "call": "active"}
{"gene": "MASTL", "technical replicate": "3", "viability, normalised (%)": 64.4, "call": "active"}
{"gene": "CLK2", "technical replicate": "1", "viability, normalised (%)": 58.1, "call": "active"}
{"gene": "CLK2", "technical replicate": "1", "viability, normalised (%)": 58.4, "call": "active"}
{"gene": "CLK2", "technical replicate": "2", "viability, normalised (%)": 49.3, "call": "active"}
{"gene": "CLK2", "technical replicate": "2", "viability, normalised (%)": 53.4, "call": "active"}
{"gene": "CLK2", "technical replicate": "3", "viability, normalised (%)": 61.8, "call": "active"}
{"gene": "CLK2", "technical replicate": "3", "viability, normalised (%)": 66.7, "call": "active"}
{"gene": "PRC1", "technical replicate": "1", "viability, normalised (%)": 60.5, "call": "active"}
{"gene": "PRC1", "technical replicate": "2", "viability, normalised (%)": 59, "call": "active"}
{"gene": "PRC1", "technical replicate": "3", "viability, normalised (%)": 55.6, "call": "active"}
{"gene": "MAP3K20", "technical replicate": "1", "viability, normalised (%)": 51, "call": "active"}
{"gene": "MAP3K20", "technical replicate": "2", "viability, normalised (%)": 74.7, "call": "active"}
{"gene": "MAP3K20", "technical replicate": "3", "viability, normalised (%)": 64.6, "call": "active"}
{"gene": "UBE2A", "technical replicate": "1", "viability, normalised (%)": 61.5, "call": "active"}
{"gene": "UBE2A", "technical replicate": "2", "viability, normalised (%)": 56.2, "call": "active"}
{"gene": "UBE2A", "technical replicate": "3", "viability, normalised (%)": 54.6, "call": "active"}
{"gene": "NHEJ1", "technical replicate": "1", "viability, normalised (%)": 50, "call": "active"}
{"gene": "NHEJ1", "technical replicate": "1", "viability, normalised (%)": 39, "call": "active"}
{"gene": "NHEJ1", "technical replicate": "2", "viability, normalised (%)": 59.1, "call": "active"}
{"gene": "NHEJ1", "technical replicate": "2", "viability, normalised (%)": 36.7, "call": "active"}
{"gene": "NHEJ1", "technical replicate": "3", "viability, normalised (%)": 58.9, "call": "active"}
{"gene": "NHEJ1", "technical replicate": "3", "viability, normalised (%)": 40.2, "call": "active"}
{"gene": "EPHA4", "technical replicate": "1", "viability, normalised (%)": 52.1, "call": "active"}
{"gene": "EPHA4", "technical replicate": "2", "viability, normalised (%)": 52.6, "call": "active"}
{"gene": "EPHA4", "technical replicate": "3", "viability, normalised (%)": 54.8, "call": "active"}
